Assay results as given in the supplement of paper PMC10849652.
The other results are listed elsewhere or left out.

Chains of the proteins cited; added tags and fusions are not shown. Lines headed by an entry give the natural chain unless they say otherwise; changes in a name come on top.
UniProt Q09028, whole entry, looked up: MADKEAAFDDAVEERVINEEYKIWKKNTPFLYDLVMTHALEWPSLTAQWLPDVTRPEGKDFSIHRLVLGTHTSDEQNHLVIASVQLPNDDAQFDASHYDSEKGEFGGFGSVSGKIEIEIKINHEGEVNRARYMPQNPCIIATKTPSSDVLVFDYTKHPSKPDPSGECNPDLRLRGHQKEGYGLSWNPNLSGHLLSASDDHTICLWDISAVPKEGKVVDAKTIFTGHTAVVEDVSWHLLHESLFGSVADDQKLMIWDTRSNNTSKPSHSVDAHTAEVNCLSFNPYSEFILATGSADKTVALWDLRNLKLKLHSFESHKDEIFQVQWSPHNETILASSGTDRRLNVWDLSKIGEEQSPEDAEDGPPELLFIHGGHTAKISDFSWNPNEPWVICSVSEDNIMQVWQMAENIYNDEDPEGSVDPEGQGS
UniProt P61018: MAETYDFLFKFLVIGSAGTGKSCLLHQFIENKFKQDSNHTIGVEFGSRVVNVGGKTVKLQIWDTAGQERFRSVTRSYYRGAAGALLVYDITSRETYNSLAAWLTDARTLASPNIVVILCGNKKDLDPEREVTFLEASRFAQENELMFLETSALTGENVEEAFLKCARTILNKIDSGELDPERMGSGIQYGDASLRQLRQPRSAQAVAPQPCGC
UniProt Q9UI14, whole entry, looked up: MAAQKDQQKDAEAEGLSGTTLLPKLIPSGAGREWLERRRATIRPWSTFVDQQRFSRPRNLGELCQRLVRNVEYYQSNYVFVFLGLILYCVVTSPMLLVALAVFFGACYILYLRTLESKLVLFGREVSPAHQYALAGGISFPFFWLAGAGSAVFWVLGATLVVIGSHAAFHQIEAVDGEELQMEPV
UniProt P61224: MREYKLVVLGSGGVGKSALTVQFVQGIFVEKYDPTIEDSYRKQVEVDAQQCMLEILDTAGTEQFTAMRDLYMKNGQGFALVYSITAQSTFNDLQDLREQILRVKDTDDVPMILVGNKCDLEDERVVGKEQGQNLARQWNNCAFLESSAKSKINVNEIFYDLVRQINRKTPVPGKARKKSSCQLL
UniProt Q99638: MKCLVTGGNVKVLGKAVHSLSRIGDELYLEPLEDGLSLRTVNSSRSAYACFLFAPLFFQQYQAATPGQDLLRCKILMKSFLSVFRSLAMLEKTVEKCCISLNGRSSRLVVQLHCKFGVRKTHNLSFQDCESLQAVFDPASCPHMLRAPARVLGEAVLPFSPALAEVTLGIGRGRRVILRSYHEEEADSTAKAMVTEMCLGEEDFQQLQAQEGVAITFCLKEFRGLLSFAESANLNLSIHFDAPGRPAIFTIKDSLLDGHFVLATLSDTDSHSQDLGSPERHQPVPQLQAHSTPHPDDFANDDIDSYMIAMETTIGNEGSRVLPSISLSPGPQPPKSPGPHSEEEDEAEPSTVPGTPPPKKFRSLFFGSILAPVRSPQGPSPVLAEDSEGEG
UniProt Q9BUV8: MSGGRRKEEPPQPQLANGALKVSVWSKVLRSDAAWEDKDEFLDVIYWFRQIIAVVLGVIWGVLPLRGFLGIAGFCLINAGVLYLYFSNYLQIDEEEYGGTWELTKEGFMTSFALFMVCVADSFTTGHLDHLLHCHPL
UniProt P46060: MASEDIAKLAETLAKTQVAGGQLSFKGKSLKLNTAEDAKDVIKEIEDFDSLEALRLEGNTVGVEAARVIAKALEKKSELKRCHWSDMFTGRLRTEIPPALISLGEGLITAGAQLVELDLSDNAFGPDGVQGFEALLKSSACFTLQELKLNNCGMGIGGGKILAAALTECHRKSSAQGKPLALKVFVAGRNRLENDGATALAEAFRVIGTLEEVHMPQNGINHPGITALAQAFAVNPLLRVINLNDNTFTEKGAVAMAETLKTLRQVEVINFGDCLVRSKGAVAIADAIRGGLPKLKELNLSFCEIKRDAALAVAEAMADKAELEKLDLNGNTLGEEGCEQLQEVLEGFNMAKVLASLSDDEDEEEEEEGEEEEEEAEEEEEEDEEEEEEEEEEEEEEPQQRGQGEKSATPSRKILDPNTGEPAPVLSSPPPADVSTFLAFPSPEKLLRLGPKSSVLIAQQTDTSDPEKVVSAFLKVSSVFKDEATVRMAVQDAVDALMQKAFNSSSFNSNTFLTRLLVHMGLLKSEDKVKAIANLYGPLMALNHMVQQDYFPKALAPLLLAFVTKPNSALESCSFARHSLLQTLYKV
UniProt P11233: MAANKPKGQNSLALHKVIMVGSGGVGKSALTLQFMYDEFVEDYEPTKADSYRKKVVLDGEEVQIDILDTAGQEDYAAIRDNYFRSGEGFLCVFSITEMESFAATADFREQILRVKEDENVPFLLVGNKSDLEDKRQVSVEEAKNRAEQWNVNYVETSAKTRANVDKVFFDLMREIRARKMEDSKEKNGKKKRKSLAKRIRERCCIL
UniProt Q8N0T1: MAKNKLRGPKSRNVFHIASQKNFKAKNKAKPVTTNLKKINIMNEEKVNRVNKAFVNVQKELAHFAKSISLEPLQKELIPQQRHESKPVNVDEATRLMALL
UniProt P10114: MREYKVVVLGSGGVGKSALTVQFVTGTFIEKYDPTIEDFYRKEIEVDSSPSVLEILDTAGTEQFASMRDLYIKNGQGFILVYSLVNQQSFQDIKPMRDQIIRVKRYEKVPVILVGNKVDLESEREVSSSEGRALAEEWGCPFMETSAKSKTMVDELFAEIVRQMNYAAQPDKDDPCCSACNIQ
UniProt Q9NX57: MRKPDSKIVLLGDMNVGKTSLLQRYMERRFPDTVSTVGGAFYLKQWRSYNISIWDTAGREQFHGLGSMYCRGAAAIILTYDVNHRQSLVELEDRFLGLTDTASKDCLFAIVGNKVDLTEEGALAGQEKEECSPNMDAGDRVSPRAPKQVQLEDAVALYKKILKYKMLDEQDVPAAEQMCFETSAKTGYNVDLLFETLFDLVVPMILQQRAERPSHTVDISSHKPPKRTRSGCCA
UniProt P51148: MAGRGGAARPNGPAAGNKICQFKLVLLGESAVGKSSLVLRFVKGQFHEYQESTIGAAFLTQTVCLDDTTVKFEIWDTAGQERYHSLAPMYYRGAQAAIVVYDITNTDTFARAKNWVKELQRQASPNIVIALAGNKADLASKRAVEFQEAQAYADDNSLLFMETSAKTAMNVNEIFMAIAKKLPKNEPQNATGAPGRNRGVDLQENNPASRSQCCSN
UniProt Q9UKM9: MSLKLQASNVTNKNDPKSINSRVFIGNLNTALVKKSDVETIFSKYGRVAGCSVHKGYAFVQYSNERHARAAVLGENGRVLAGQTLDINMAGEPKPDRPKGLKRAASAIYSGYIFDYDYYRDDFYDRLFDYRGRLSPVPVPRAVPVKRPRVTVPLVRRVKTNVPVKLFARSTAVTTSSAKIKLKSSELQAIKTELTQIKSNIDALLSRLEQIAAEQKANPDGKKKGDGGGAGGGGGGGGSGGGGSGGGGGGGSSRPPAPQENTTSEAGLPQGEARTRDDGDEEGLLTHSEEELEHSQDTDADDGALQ
UniProt Q9UJ41, whole entry, looked up: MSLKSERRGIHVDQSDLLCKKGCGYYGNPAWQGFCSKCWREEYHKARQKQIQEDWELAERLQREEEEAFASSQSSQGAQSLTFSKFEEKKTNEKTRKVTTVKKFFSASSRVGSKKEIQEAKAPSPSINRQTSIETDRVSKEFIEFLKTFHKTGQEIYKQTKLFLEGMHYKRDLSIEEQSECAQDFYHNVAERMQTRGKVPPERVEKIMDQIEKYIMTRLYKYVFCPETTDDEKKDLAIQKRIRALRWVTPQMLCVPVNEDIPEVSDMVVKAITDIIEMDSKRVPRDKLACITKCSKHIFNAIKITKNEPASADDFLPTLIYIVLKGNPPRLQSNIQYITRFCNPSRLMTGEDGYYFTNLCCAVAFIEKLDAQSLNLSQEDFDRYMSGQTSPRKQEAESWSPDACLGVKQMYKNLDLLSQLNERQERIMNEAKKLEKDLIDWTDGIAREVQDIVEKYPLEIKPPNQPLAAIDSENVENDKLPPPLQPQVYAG

How the values were obtained:
Assay in all cases: log2 fold change, soluble protein after heating vs DMSO (PISA); higher = thermal stabilisation; K562 cells, 10 uM, 30 min; active = over 0.2 and 3.5 SD of the protein, either way, in both replicates (recomputed)
[1] = compound: CC1=C(C=C(C=C1)NC(=O)C2=CC(=CC=C2)C(C)(C)C#N)NC3=CC4=C(C=C3)N=CN(C4=O)C
In short: (§1)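 Soluble protein was quantified by TMTpro 16plex LC-MS/MS after channel sums were equalised. It was obtained as the supernatant after 21,000xg for 90 min from pooled aliquots of K562 cells (2×10^6 cells/mL, 10 μM compound, 30 min) heated for 3 min across 48°C-58°C and extracted in PBS with 0.5% NP-40 at 4°C. Thermal stability values are relative to control samples and come from duplicates. They are given as log2 fold changes.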

[2] = compound: CC1=C(C=C(C=C1)NC(=O)C2=CC(=CC=C2)N(C)C)NC(=O)C3=CC=C(C=C3)O
In short: as §1

[3] = compound: CC1=CC=C(C=C1)SC2=C3C=C(SC3=CN=C2)C(=O)N
In short: as §1

[4] = compound: CC1=NC(=CC=C1)C2=C(N=C(N2)C(C)(C)C)C3=CC4=NC=CN=C4C=C3
In short: as §1

Nexturastat A = compound: CCCCN(Cc1ccc(C(=O)NO)cc1)C(=O)Nc1ccccc1 [Nexturastat A]
In short: as §1

vemurafenib = compound: CCCS(=O)(=O)Nc1ccc(F)c(C(=O)c2c[nH]c3ncc(-c4ccc(Cl)cc4)cc23)c1F [vemurafenib]
In short: as §1

[5] = compound: CCCS(=O)(=O)Nc1ccc(F)c(C(=O)c2c[nH]c3ncc(Cl)cc23)c1F
In short: as §1

[6] = compound: CCCc1cc(C)[nH]c(=O)c1CNC(=O)c1cc(-c2ccnc(N3CCN(C)CC3)c2)cc2c1cnn2C(C)C
In short: as §1

givinostat = compound: CCN(CC)Cc1ccc2cc(COC(=O)Nc3ccc(C(=O)NO)cc3)ccc2c1 [givinostat]
In short: as §1

barasertib = compound: CCN(CCCOc1ccc2c(Nc3cc(CC(=O)Nc4cccc(F)c4)[nH]n3)ncnc2c1)CCOP(=O)(O)O [barasertib]
In short: as §1

[7] = compound: CC[C@@H]1C(=O)N(C)c2cnc(Nc3ccc(C(=O)NC4CCN(C)CC4)cc3OC)nc2N1C1CCCC1
In short: as §1

volasertib = compound: CC[C@@H]1C(=O)N(C)c2cnc(Nc3ccc(C(=O)N[C@H]4CC[C@H](N5CCN(CC6CC6)CC5)CC4)cc3OC)nc2N1C(C)C [volasertib]
In short: as §1

[8] = compound: CC[C@H](C)N1C=C(C2=C(C=C(C=C21)C3=CN=C(C=C3)N4CCNCC4)C(=O)NCC5=C(C=C(NC5=O)C)C)C
In short: as §1

epoxomicin = compound: CC[C@H](C)[C@@H](C(=O)N[C@@H]([C@@H](C)O)C(=O)N[C@@H](CC(C)C)C(=O)[C@]1(CO1)C)NC(=O)[C@H]([C@@H](C)CC)N(C)C(=O)C [epoxomicin]
In short: as §1

[9] = compound: CCn1c(C(=O)N(C2CC2)C2CC2)cc2c3c(ncn3C)c(Nc3cc(C)n(C)n3)nc21
In short: as §1

[10] = compound: CCn1cc(-c2ccnc3[nH]c(-c4cccc(CN(C)C)c4)cc23)c(-c2ccc(NC(=O)N(C)C)cc2)n1
In short: as §1

[11] = compound: CN(C)CC(=O)Nc1ccc2[nH]c(=O)c3ccccc3c2c1
In short: as §1

rosiglitazone = compound: CN(CCOC1=CC=C(C=C1)C[C@H]2C(=O)NC(=O)S2)C3=CC=CC=N3 (racemic) [rosiglitazone]
In short: as §1

[12] = compound: CN1C2=C(C3=C1C(=O)N(N=C3)CC4=CC(=CC=C4)N)SC(=C2)S(=O)C
In short: as §1

[13] = compound: CN1CCC(CNc2ccc3ncc(-c4cccc(OC(F)(F)F)c4)n3n2)CC1
In short: as §1

Measured: log2 fold change

RBBP4 (UniProt Q09028)
inactive: [1] -0.032 | [2] 0.007 | [3] 0.005 | [4] 0.02 | Nexturastat A -0.013 | vemurafenib -0.023 | [5] -0.008 | [6] -0.049 | givinostat -0.02 | barasertib -0.025 | [7] 0.014 | volasertib -0.015 | [8] -0.032 | epoxomicin 0.017 | [9] -0.012 | [10] -0.016 | [11] 0.021 | rosiglitazone 0.001 | [12] -0.132 | [13] 0.063

RAB4B isoform 2 (UniProt P61018)
inactive: [1] -0.008 | [2] 0.032 | [3] 0.02 | [4] 0 | Nexturastat A -0.065 | vemurafenib 0.029 | [5] 0.003 | [6] -0.052 | givinostat -0.01 | barasertib -0.011 | [7] 0.02 | volasertib 0.059 | [8] -0.039 | epoxomicin -0.045 | [9] 0.02 | [10] -0.007 | [11] -0.015 | rosiglitazone -0.01 | [12] -0.076 | [13] 0.07

RABAC1 (UniProt Q9UI14)
inactive: [1] -0.041 | [2] 0.071 | [3] -0.022 | [4] -0.031 | Nexturastat A -0.011 | vemurafenib -0.009 | [5] -0.091 | [6] -0.016 | givinostat -0.039 | barasertib -0.031 | [7] -0.037 | volasertib 0.058 | [8] -0.092 | epoxomicin -0.077 | [9] 0.106 | [10] -0.095 | [11] -0.075 | rosiglitazone -0.003 | [12] 0.034 | [13] 0.07

RAP1B (UniProt P61224)
inactive: [1] 0.004 | [2] 0.014 | [3] 0.003 | [4] 0.061 | Nexturastat A -0.032 | vemurafenib 0.041 | [5] -0.005 | [6] 0.039 | givinostat 0.024 | barasertib -0.022 | [7] 0.013 | volasertib 0.067 | [8] -0.029 | epoxomicin 0.068 | [9] 0.016 | [10] 0.052 | [11] 0.002 | rosiglitazone 0.006 | [12] -0.031 | [13] 0.15

RAD9A (UniProt Q99638)
inactive: [1] -0.013 | [2] 0.029 | [3] 0.072 | [4] 0.029 | Nexturastat A -0.023 | vemurafenib 0.034 | [5] -0.01 | [6] -0.052 | givinostat -0.024 | barasertib -0.007 | [7] -0.066 | volasertib -0.046 | [8] -0.061 | epoxomicin 0.025 | [9] -0.019 | [10] -0.109 | [11] -0.019 | rosiglitazone 0.01 | [12] -0.088 | [13] -0.038

RAB5IF isoform 5 (UniProt Q9BUV8)
inactive: [1] 0.044 | [2] 0.01 | [3] -0.042 | [4] 0.247 | Nexturastat A -0.143 | vemurafenib 0.047 | [5] 0.012 | [6] 0.244 | givinostat -0.007 | barasertib -0.003 | [7] -0.025 | volasertib 0.036 | [8] -0.129 | epoxomicin 0.017 | [10] -0.056 | [11] -0.031 | [12] 0.003 | [13] 0.092

RANGAP1 (UniProt P46060)
inactive: [1] 0.008 | [2] -0.003 | [3] 0.008 | [4] 0.031 | Nexturastat A 0.004 | vemurafenib 0.051 | [5] 0.098 | [6] 0.033 | givinostat -0.014 | barasertib 0.055 | [7] -0.052 | volasertib -0.206 | [8] 0.049 | epoxomicin -0.008 | [9] -0.013 | [10] 0.007 | [11] 0.011 | rosiglitazone 0.033 | [12] 0.02 | [13] -0.039

RALA (UniProt P11233)
active: [13] 0.434
inactive: [1] -0.007 | [2] -0.006 | [3] 0.02 | [4] 0.132 | Nexturastat A 0.021 | vemurafenib -0.031 | [5] 0.05 | [6] 0.019 | givinostat -0.002 | barasertib -0.001 | [7] 0.084 | volasertib 0.025 | [8] -0.044 | epoxomicin -0.054 | [10] 0.029 | [11] -0.029 | [12] -0.115

RBIS (UniProt Q8N0T1)
inactive: [1] -0.099 | [2] -0.011 | [3] -0.055 | [4] 0.023 | Nexturastat A -0.012 | vemurafenib -0.002 | [5] -0.063 | [6] -0.074 | givinostat -0.02 | barasertib -0.009 | [7] 0.105 | volasertib 0.06 | [8] -0.012 | epoxomicin 0.204 | [10] 0.075 | [11] -0.108 | [12] 0.026 | [13] -0.034

RAP2A (UniProt P10114)
inactive: [1] 0.006 | [2] 0.006 | [3] 0.038 | [4] -0.045 | Nexturastat A -0.069 | vemurafenib -0.021 | [5] -0.052 | [6] 0.013 | givinostat -0.004 | barasertib -0.012 | [7] 0.059 | volasertib 0.035 | [8] -0.016 | epoxomicin -0.044 | [9] 0.008 | [10] -0.133 | [11] -0.007 | rosiglitazone -0.003 | [12] -0.029 | [13] 0.01

RAC3 (UniProt P60763)
inactive: [1] 0.025 | [2] -0.021 | [3] 0.084 | [4] -0.004 | Nexturastat A -0.042 | vemurafenib 0.006 | [5] -0.006 | [6] -0.044 | givinostat -0.037 | barasertib -0.015 | [7] 0.039 | volasertib 0.075 | [8] -0.082 | epoxomicin -0.008 | [10] -0.149 | [11] 0 | [12] -0.095 | [13] 0.035

RAB20 (UniProt Q9NX57)
inactive: [1] -0.003 | [2] -0.002 | [3] 0.012 | [4] 0.001 | Nexturastat A -0.079 | vemurafenib -0.049 | [5] -0.019 | [6] 0.014 | givinostat 0.008 | barasertib 0.005 | [7] 0.067 | volasertib 0.061 | [8] -0.036 | epoxomicin 0.008 | [9] 0.029 | [10] 0 | [11] -0.019 | rosiglitazone -0.017 | [12] 0.006 | [13] 0.048

Pulled one by one from the entries so far, two records:
RBIS (UniProt Q8N0T1)
inactive: [1] -0.099 | [2] -0.011 | [3] -0.055 | [4] 0.023 | Nexturastat A -0.012 | vemurafenib -0.002 | [5] -0.063 | [6] -0.074 | givinostat -0.02 | barasertib -0.009 | [7] 0.105 | volasertib 0.06 | [8] -0.012 | epoxomicin 0.204 | [10] 0.075 | [11] -0.108 | [12] 0.026 | [13] -0.034

RAB4B isoform 2 (UniProt P61018)
inactive: [1] -0.008 | [2] 0.032 | [3] 0.02 | [4] 0 | Nexturastat A -0.065 | vemurafenib 0.029 | [5] 0.003 | [6] -0.052 | givinostat -0.01 | barasertib -0.011 | [7] 0.02 | volasertib 0.059 | [8] -0.039 | epoxomicin -0.045 | [9] 0.02 | [10] -0.007 | [11] -0.015 | rosiglitazone -0.01 | [12] -0.076 | [13] 0.07

Next part

RAB5C isoform 2 (UniProt P51148)
inactive: [1] 0.069 | [2] -0.02 | [3] 0.02 | [4] 0.01 | Nexturastat A -0.029 | vemurafenib 0.015 | [5] 0.008 | [6] -0.017 | givinostat 0.006 | barasertib -0.031 | [7] 0.004 | volasertib 0.045 | [8] -0.024 | epoxomicin 0 | [10] -0.002 | [11] 0 | [12] -0.032 | [13] 0.018

RALY (UniProt Q9UKM9)
inactive: [1] 0.091 | [2] -0.021 | [3] -0.05 | [4] 0.105 | Nexturastat A 0.358 | vemurafenib -0.056 | [5] 0.187 | [6] 0.005 | givinostat 0.209 | barasertib -0.138 | [7] 0.113 | volasertib -0.05 | [8] 0.136 | epoxomicin -0.277 | [10] 0.173 | [11] 0.001 | [12] 0.358 | [13] 0.092

RABGEF1 isoform 3 (UniProt Q9UJ41)
inactive: [1] -0.032 | [2] 0.069 | [3] 0.009 | [4] 0.006 | Nexturastat A 0.046 | vemurafenib 0.015 | [5] -0.009 | [6] -0.01 | givinostat -0.013 | barasertib 0.005 | [7] 0.036 | volasertib -0.062 | [8] 0.027 | epoxomicin 0.066 | [9] 0.014 | [10] 0.03 | [11] -0.028 | rosiglitazone 0.012 | [12] 0.014 | [13] -0.059

RABGAP1L isoform 3 (UniProt Q5R372)
inactive: [1] 0.002 | [2] 0.018 | [3] 0.018 | [4] -0.005 | Nexturastat A -0.058 | vemurafenib -0.008 | [5] 0.073 | [6] 0.03 | givinostat 0.034 | barasertib 0.022 | [7] -0.046 | volasertib -0.107 | [8] 0.053 | epoxomicin 0.08 | [10] -0.034 | [11] -0.011 | [12] 0.02 | [13] 0.025
